Measured values taken from patent US20110262439A1 (Amgen, published 2011).
Results are given in words; binding and its absence hold for the method and conditions named. Some results given as binding are weak or reduced against the parent protein; the word gives no strength.

Target: mutated human c-MET antigen with murine membrane-distal epitopes (extracellular domains fused to a truncated variant of human EpCAM) (human/murine chimera)
Experiment: FACS, CHO transfectants, periplasmic preparation

binding: binds
B1: ME99B1HL (scFv)
scFv: EVQLLEQSGAELVRPGTSVKISCKATGYTFSNYWISWVKYRPGHGLEWIGDIYPGGSYTNYNEKFKGKVTLTADTSSRTAYMQLSGLTFEDSAIYYCARSGYDYGSDYDYHGMDYWGQGTTVTVSSGGGGSGGGGSGGGGSELQMTQSPASLSASVGETVTITCRASENIYSNLAWYQQKQGKSPQLLVYAATNLADGVPSRFSGSRSGSDYSLTISSLESEDFVDYYCLQYASYPYTFGGGTKLEIKTGDYKDDDDKHHHHHH
notes: murine anti-c-MET scFv; E. coli periplasmic preparation
